PubChem BioAssay AID1259308 | NCATS, 2017
In all, the deposit lists about 59,000 reagents; shown is a random part of them. About 1,510 of all reagents (2.6%) count as active. 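Calls use total luciferase alone and ignore viability, so some active siRNAs may act by altering cell number.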 Entries without a mark were called inactive. Reagents against one gene are numbered here.

Purpose: 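Candidate targets for better recombinant protein yield in mammalian cells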 (primary screen)
Cell system: human HEK293 embryonic kidney cells stably expressing firefly luciferase (HEK-CMV-Luc2-Hygro)
Knock-down reagent: single siRNA against human genes, 0.8 pmol siRNA per well
Timing: 72 h
Measurement: 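Reporter luminescence and viable-cell signal on separate replicate plates, given as percent of non-targeting control and median/MAD z-scores, plus per-cell luciferase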
Reading the numbers: total luciferase, z-score and total luciferase, % of control: higher = more reporter protein produced; luciferase per cell, z-score: higher = more reporter output per viable cell; viable cells, % of control: higher = more viable cells
Rule for the call: 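An siRNA counts as active if its total luciferase robust z-score exceeds 3; genes with two or more such siRNAs out of three were retested with fresh siRNAs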
Calls: active = raised luciferase; inactive = no rise

no.	gene symbol	reagent	total luciferase, z-score	total luciferase, % of control	luciferase per cell, z-score	viable cells, % of control
1	POU4F2 (GeneID 5458)	1	-1.78	46.4	-2.1	90.1
2	POU4F2 (GeneID 5458)	2	-0.0915	80.1	0.114	86.8
3	POU4F2 (GeneID 5458)	3	1.58	113	1.36	88.5
4	FLJ38576 (GeneID 651430)	1	1.98	121	1.02	104
5	FLJ38576 (GeneID 651430)	2	2.11	124	2.06	80.5
6	FLJ38576 (GeneID 651430)	3	0.944	101	0.63	95.3
7	TOM1L1 (GeneID 10040)	1	-0.553	70.9	-1.2	109
8	TOM1L1 (GeneID 10040)	2	0.039	82.7	0.828	74.3
9	TOM1L1 (GeneID 10040)	3	-0.0305	81.3	0.547	78.6
10	RBM15 (GeneID 64783)	1	-0.77	66.6	-0.832	92.6
11	RBM15 (GeneID 64783)	2	-0.439	73.2	-0.447	92
12	RBM15 (GeneID 64783)	3	-0.781	66.3	-0.829	92.2
13	LYRM1 (GeneID 57149)	1	0.418	90.2	0.76	82.5
14	LYRM1 (GeneID 57149)	2	0.659	95	0.0774	104
15	LYRM1 (GeneID 57149)	3	-2.47	32.8	-2.66	73.9
16	GPR162 (GeneID 27239)	1	-0.357	74.8	-0.704	101
17	GPR162 (GeneID 27239)	2	0.638	94.6	0.184	101
18	GPR162 (GeneID 27239)	3	6.19 (active)	205	4.13	77.2
19	PCDHB10 (GeneID 56126)	1	-0.261	76.7	-0.0447	86.7
20	PCDHB10 (GeneID 56126)	2	-0.227	77.4	-0.256	92.5
21	PCDHB10 (GeneID 56126)	3	-0.396	74	-0.496	94.2
22	ZIC5 (GeneID 85416)	1	-0.421	73.5	-0.554	95
23	ZIC5 (GeneID 85416)	2	-0.979	62.4	-0.235	74.2
24	ZIC5 (GeneID 85416)	3	1.19	106	0.403	106
25	PSMD12 (GeneID 5718)	1	-0.0953	80	2.93	41.3
26	PSMD12 (GeneID 5718)	2	2.33	128	3.42	58.3
27	PSMD12 (GeneID 5718)	3	0.237	86.6	2.42	51.1
28	B4GALNT4 (GeneID 338707)	1	-2.66	28.9	-2.66	65.2
29	B4GALNT4 (GeneID 338707)	2	2.82	138	2.1	88.7
30	B4GALNT4 (GeneID 338707)	3	0.252	86.9	0.263	90.6
31	TMEM134 (GeneID 80194)	1	0.166	85.2	-0.43	107
32	TMEM134 (GeneID 80194)	2	-1.78	46.5	-0.94	66.6
33	TMEM134 (GeneID 80194)	3	-0.569	70.6	-0.253	84.3
34	LNX1 (GeneID 84708)	1	0.239	86.6	0.168	92.6
35	LNX1 (GeneID 84708)	2	1.17	105	1.44	80.4
36	LNX1 (GeneID 84708)	3	-0.386	74.2	-0.697	99.6
37	CYP2S1 (GeneID 29785)	1	-2.08	40.6	-2.26	82.2
38	CYP2S1 (GeneID 29785)	2	0.351	88.9	0.721	82.1
39	CYP2S1 (GeneID 29785)	3	-0.982	62.3	-0.509	79.7
40	STK26 (GeneID 51765)	1	0.0253	82.4	-0.501	105
41	STK26 (GeneID 51765)	2	-0.586	70.2	-0.75	95.6
42	STK26 (GeneID 51765)	3	0.0454	82.8	-0.53	106
43	ZNF639 (GeneID 51193)	1	0.586	93.5	0.279	97.1
44	ZNF639 (GeneID 51193)	2	-0.306	75.8	-0.399	94.1
45	ZNF639 (GeneID 51193)	3	0.366	89.2	0.216	94.1
46	CACFD1 (GeneID 11094)	1	0.23	86.5	0.12	93.6
47	CACFD1 (GeneID 11094)	2	0.548	92.8	0.0427	103
48	CACFD1 (GeneID 11094)	3	3.71 (active)	156	2.38	93
49	LCNL1 (GeneID 401562)	1	0.516	92.2	1.59	67.8
50	LCNL1 (GeneID 401562)	2	2.39	129	3.16	62.9
51	LCNL1 (GeneID 401562)	3	2.29	127	1.38	99.1
52	TMEM119 (GeneID 338773)	1	0.0286	82.5	0.705	76.5
53	TMEM119 (GeneID 338773)	2	-1.97	42.7	-1.01	62.4
54	TMEM119 (GeneID 338773)	3	0.605	93.9	-0.0439	106
55	EIF3FP3 (GeneID 339799)	1	-0.845	65.1	0.0753	71.3
56	EIF3FP3 (GeneID 339799)	2	-0.35	74.9	-0.137	86.8
57	EIF3FP3 (GeneID 339799)	3	-1.62	49.7	-2.13	97.3
58	OR8G5 (GeneID 219865)	1	0.415	90.1	1.1	75.4
59	OR8G5 (GeneID 219865)	2	-0.935	63.3	-1.02	92.6
60	OR8G5 (GeneID 219865)	3	0.00604	82	0.5	80.3
61	FIZ1 (GeneID 84922)	1	0.0872	83.6	0.155	89.7
62	FIZ1 (GeneID 84922)	2	-0.799	66	-0.949	94.7
63	FIZ1 (GeneID 84922)	3	-0.295	76	-0.987	110
64	GART (GeneID 2618)	1	2.92	140	1.84	96.4
65	GART (GeneID 2618)	2	-0.794	66.1	-0.0181	74.2
66	GART (GeneID 2618)	3	-0.464	72.7	-0.175	85
67	TMEM163 (GeneID 81615)	1	-0.353	74.9	-0.721	101
68	TMEM163 (GeneID 81615)	2	0.247	86.8	0.0807	95
69	TMEM163 (GeneID 81615)	3	1.07	103	1.46	78.4
70	PTPN22 (GeneID 26191)	1	1.17	105	1.55	78.2
71	PTPN22 (GeneID 26191)	2	1.72	116	1.31	91.8
72	PTPN22 (GeneID 26191)	3	0.192	85.7	-0.188	101
73	RP9 (GeneID 6100)	1	-0.52	71.6	-0.615	94
74	RP9 (GeneID 6100)	2	0.173	85.3	0.971	73.8
75	RP9 (GeneID 6100)	3	-1.48	52.5	-1.47	86.6
